This is one part of the list. Residues, ends and D or L forms follow the SMILES beside them. *: point of attachment. Cbz = O=C(OCc1ccccc1)*
Legend:
Test in all cases: log2 fold change, soluble protein after heating vs DMSO (PISA); higher = thermal stabilisation; K562 cells, 10 uM, 30 min; active = over 0.2 and 3.5 SD of the protein, either way, in both replicates (recomputed)
[1] = compound: C1COCCN1CCN2C3=CC=CC=C3N=C2NC(=O)C4=CC(=CC=C4)[N+](=O)[O-] [IRAK-1-4 Inhibitor I]
Outline: (§1)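 K562 cells at 2×10^6 cells/mL were treated with 10 μM compound for 30 min. Aliquots were heated for 3 min across 48°C-58°C, pooled, and extracted in PBS with 0.5% NP-40 at 4°C; soluble protein was the supernatant after 21,000xg for 90 min. Soluble protein was quantified by TMTpro 16plex LC-MS/MS with channel sums equalised, and reported as log2 fold change in thermal stability against DMSO controls, with values from duplicates.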

Amino acid sequences for entries named in this document (tags omitted). A change or cut given only in a name is not applied to a line headed by its entry.
UniProt O95639, whole entry, looked up: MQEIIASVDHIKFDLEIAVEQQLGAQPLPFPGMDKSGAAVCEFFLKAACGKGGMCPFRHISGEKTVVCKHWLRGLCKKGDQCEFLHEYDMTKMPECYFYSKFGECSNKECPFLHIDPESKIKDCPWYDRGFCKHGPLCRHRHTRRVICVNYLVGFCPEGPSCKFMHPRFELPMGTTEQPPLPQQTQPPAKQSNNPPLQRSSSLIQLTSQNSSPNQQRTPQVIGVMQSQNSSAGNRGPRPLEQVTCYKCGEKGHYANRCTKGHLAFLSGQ
UniProt Q16526: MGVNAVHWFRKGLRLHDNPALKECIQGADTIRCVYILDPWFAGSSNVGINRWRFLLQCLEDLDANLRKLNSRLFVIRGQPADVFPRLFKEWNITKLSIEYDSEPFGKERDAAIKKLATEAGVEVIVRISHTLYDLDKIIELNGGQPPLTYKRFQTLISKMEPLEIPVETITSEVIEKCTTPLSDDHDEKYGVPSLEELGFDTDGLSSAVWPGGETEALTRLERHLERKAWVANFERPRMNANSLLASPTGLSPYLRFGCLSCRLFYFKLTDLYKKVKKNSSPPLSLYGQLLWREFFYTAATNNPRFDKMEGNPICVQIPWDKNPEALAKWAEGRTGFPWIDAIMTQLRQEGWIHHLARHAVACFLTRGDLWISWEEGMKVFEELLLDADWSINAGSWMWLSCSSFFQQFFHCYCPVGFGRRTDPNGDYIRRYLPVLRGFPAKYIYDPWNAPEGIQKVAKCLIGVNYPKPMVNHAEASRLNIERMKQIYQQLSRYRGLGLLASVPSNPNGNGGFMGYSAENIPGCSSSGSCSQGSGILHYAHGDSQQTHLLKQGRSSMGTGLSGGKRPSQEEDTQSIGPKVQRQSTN
UniProt P02461, whole entry, looked up: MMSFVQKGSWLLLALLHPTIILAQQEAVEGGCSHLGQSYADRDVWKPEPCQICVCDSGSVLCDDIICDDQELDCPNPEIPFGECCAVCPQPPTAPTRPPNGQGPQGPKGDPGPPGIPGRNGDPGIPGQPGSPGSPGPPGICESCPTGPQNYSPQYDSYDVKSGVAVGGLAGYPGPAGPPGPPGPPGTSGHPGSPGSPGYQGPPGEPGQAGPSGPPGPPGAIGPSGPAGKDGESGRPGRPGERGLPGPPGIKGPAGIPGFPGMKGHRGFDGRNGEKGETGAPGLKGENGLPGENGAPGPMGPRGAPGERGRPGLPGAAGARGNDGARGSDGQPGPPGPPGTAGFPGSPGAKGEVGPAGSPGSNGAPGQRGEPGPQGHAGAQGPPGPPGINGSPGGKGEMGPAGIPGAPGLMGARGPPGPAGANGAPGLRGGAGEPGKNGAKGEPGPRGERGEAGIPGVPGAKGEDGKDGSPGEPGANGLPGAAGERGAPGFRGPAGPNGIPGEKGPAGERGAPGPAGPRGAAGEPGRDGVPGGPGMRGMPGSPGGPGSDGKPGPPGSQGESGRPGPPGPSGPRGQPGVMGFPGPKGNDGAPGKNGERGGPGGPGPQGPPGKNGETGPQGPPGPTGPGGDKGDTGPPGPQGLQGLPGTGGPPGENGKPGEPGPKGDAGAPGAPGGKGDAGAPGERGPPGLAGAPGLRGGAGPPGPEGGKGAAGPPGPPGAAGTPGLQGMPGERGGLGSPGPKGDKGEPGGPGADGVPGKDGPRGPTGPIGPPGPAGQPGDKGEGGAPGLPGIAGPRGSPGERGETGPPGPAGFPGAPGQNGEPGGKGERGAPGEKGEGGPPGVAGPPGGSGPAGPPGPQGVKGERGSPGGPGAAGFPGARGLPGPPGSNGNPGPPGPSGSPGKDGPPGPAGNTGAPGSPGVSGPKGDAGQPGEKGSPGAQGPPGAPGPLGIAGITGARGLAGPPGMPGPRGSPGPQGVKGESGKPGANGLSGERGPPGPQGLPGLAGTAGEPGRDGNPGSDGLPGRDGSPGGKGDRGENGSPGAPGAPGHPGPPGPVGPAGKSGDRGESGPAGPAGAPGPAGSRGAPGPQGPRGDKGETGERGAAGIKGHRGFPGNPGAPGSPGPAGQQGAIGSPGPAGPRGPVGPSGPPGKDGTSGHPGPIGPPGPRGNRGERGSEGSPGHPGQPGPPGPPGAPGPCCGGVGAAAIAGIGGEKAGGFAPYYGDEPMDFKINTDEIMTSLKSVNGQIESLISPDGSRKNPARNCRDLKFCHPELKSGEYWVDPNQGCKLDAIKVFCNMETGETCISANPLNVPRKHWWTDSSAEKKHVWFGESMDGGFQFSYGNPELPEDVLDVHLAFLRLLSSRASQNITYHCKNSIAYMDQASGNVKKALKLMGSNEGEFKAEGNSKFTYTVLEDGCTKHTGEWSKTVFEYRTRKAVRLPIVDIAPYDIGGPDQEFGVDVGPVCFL
UniProt P78560: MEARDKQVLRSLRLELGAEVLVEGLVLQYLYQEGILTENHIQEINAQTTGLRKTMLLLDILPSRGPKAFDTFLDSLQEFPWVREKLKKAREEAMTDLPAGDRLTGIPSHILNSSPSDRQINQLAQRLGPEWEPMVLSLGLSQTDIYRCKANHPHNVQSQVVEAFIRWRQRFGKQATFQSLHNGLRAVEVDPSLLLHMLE
UniProt P29373: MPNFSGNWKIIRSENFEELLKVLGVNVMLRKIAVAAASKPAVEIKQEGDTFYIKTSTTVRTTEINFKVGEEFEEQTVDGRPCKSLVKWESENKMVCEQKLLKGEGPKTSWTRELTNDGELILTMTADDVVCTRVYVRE
UniProt Q6QEF8, whole entry, looked up: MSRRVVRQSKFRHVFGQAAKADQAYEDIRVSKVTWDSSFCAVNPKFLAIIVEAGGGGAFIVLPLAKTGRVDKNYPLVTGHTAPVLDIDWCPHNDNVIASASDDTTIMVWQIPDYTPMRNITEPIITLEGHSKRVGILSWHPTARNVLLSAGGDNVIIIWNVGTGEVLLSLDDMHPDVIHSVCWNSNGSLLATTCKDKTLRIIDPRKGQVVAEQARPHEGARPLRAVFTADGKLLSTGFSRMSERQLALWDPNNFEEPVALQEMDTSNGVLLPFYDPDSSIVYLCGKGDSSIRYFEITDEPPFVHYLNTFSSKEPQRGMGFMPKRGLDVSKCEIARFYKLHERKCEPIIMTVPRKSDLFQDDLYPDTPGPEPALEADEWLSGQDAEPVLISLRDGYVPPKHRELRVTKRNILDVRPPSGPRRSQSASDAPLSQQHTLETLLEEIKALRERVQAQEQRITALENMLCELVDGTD
UniProt Q96H96: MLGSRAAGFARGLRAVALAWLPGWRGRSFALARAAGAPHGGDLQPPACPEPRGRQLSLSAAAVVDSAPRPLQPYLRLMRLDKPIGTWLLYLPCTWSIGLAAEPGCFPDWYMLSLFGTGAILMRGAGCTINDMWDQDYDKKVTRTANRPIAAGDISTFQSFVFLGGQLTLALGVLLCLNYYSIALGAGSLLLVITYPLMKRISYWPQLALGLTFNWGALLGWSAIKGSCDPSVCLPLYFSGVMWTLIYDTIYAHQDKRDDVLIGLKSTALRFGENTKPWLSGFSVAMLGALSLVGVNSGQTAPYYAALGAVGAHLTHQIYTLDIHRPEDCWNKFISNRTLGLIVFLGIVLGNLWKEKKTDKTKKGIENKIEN
UniProt Q96I36: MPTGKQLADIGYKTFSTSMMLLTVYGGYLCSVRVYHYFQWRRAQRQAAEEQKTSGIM
UniProt Q9UI42: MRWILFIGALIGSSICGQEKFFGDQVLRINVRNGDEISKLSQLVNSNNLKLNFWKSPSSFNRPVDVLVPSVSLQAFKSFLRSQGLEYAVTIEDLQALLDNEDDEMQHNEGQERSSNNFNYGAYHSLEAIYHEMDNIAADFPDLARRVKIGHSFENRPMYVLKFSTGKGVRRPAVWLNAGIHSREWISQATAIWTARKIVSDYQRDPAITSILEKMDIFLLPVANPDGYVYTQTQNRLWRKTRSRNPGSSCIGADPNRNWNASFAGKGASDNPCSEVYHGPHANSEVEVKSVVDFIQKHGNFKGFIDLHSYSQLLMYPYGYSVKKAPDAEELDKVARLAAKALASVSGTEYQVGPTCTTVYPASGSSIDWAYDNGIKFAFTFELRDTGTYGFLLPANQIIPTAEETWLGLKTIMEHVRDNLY
UniProt P78368: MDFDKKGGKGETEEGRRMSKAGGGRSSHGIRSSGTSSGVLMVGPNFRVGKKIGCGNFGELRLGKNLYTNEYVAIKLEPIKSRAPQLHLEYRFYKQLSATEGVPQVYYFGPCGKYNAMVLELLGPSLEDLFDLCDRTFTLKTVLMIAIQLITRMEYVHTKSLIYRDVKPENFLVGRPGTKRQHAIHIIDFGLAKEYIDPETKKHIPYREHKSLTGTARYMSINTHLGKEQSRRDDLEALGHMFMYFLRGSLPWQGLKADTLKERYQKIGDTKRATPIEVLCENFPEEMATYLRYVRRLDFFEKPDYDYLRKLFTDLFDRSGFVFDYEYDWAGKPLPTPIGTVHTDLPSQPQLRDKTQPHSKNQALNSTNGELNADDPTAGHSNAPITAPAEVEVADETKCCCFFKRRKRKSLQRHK
UniProt P02511: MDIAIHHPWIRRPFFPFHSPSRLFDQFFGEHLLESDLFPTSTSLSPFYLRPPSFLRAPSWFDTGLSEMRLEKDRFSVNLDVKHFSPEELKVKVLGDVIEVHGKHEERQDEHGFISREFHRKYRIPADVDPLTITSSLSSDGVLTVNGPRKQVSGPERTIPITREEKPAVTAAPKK
UniProt Q14061: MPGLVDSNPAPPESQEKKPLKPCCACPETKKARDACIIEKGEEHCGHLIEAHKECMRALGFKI
UniProt Q86T23: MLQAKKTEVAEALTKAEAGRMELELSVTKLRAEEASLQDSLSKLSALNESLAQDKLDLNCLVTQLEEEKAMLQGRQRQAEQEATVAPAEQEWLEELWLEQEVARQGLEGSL
UniProt Q9HCH3: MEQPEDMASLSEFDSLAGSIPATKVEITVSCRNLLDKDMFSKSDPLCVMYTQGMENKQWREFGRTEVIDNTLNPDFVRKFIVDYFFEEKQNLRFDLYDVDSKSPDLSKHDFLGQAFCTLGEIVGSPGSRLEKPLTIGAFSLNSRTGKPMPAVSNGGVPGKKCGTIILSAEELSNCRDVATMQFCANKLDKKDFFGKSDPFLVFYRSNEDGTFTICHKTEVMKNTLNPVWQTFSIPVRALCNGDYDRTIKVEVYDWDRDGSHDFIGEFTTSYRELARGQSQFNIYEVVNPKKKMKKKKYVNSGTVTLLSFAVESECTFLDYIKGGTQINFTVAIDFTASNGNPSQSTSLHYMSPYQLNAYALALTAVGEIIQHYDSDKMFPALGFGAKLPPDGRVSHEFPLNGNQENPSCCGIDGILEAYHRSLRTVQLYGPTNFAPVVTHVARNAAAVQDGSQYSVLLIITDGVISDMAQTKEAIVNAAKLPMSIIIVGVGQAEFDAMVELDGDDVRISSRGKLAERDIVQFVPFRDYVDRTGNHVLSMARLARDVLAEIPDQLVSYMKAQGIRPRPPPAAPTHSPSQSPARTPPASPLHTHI
UniProt Q7Z4G1, whole entry, looked up: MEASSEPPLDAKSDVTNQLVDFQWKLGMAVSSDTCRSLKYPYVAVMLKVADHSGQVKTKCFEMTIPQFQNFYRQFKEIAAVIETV
UniProt Q9Y3A0: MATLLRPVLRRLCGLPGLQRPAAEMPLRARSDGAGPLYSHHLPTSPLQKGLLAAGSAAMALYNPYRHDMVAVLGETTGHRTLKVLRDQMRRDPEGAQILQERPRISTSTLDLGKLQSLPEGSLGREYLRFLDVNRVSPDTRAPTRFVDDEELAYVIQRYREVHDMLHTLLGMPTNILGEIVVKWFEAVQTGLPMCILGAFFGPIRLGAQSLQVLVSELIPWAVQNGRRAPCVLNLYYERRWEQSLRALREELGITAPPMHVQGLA
UniProt O75575: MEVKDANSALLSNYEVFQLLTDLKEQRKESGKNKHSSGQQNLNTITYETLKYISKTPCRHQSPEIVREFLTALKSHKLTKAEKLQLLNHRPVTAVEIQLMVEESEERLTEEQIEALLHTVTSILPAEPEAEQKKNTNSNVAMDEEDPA
UniProt Q8NHY2, whole entry, looked up: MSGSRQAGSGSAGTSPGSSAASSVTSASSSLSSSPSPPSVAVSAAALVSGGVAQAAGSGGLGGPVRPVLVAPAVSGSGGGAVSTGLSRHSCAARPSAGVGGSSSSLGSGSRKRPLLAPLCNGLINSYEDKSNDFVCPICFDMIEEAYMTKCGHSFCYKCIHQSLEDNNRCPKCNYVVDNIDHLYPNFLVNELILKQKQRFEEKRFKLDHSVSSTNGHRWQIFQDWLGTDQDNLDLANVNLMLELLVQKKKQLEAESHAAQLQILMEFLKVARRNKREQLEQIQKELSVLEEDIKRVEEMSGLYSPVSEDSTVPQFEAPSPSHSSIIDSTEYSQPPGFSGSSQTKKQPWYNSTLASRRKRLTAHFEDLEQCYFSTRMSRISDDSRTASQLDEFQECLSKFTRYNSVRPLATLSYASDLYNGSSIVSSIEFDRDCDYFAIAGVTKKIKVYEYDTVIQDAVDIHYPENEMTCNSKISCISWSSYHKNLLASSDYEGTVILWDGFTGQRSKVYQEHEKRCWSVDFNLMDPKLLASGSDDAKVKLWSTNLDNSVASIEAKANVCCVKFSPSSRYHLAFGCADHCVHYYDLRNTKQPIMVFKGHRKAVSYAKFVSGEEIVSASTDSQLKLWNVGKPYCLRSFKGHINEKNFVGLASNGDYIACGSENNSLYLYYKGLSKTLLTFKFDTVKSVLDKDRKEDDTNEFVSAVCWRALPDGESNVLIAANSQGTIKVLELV

[2] = compound: CC(C)(C)Cn1c(N)nc2ccc(-c3[nH]c(C(C)(C)C)nc3-c3ccc(F)cc3)nc21 [ralimetinib]
Outline: as §1

[3] = compound: CC(C)C1=C2N=C(C=C(N2N=C1)NCC3=CC=CC=C3)NCCCCCCN
Outline: as §1

[4] = compound: CC(C)C[C@@H](C=O)NC(=O)[C@H](CC(C)C)NC(=O)[C@H](CC(C)C)NC(=O)OCc1ccccc1
Outline: as §1

[5] = compound: CC(C)N(C[C@H]1O[C@@H](n2cnc3c(N)ncnc32)[C@H](O)[C@@H]1O)[C@H]1C[C@@H](CCc2nc3cc(C(C)(C)C)ccc3[nH]2)C1 [pinometostat]
Outline: as §1

[6] = compound: C=CC(=O)N1CCC[C@@H](n2nc(-c3ccc(Oc4ccccc4)cc3)c3c(N)ncnc32)C1 [ibrutinib]
Outline: as §1

[7] = compound: CC(C)(O)CC(=O)NCCn1ccc2ncnc(Nc3ccc(Oc4cccc(C(F)(F)F)c4)c(Cl)c3)c21
Outline: as §1

[8] = compound: CC1=C(C(CC(=O)N1)C2=CC=C(C=C2)C(F)(F)F)C(=O)NC3=C(C=C4C(=C3)C=NN4)F
Outline: as §1

[9] = compound: CC(=O)c1cnc2ccc(-c3cc(Cl)c(O)c(Cl)c3)nc2c1N[C@H]1CC[C@H](CN(C)C)CC1
Outline: as §1

[10] = compound: CC1=C(C2=C(C=C1)C(=O)C3=CC=CC=C3N2CCCN)C
Outline: as §1

Measured: log2 fold change

CPTP (UniProt Q5TA50)
inactive: [1] -0.026 | [2] 0.018 | [3] -0.075 | [4] -0.319 | [5] 0.088

CSNK1G1 (UniProt Q9HCP0)
inactive: [6] -0.011 | [2] -0.28 | [7] -0.114 | [3] -0.069 | [4] -0.015 | [8] -0.075

CPSF4 (UniProt O95639)
inactive: [6] -0.082 | [9] -0.471 | [2] 0.353 | [4] -0.036 | [8] 0.109

CRY1 (UniProt Q16526)
inactive: [2] 0.023 | [7] -0.083 | [4] 0.051 | [8] -0.107

CRNN (UniProt Q9UBG3)
inactive: [6] 0.049 | [3] -0.844

COL3A1 (UniProt P02461)
inactive: [1] 0.088 | [2] -0.216 | [7] 0.011 | [3] 0.16 | [4] 0.142 | [5] 0.001 | [10] 0.019

2 records drawn at random from the list so far, as already listed:
CPSF4 (UniProt O95639)
inactive: [6] -0.082 | [9] -0.471 | [2] 0.353 | [4] -0.036 | [8] 0.109

COL3A1 (UniProt P02461)
inactive: [1] 0.088 | [2] -0.216 | [7] 0.011 | [3] 0.16 | [4] 0.142 | [5] 0.001 | [10] 0.019

The listing continues:

CRADD (UniProt P78560)
inactive: [1] 0.152 | [9] -0.041 | [3] -0.113 | [5] 0.141 | [10] -0.156

CREM isoform 1 (UniProt Q03060)
inactive: [6] 0.147 | [9] -0.123 | [2] 0.039 | [7] 0.053 | [3] 0.074 | [4] 0.015 | [8] -0.082 | [10] 0.184

CRYM (UniProt Q14894)
inactive: [7] -0.285 | [3] 0.081 | [10] 0.11

CRABP2 (UniProt P29373)
inactive: [7] 0

CORO6 isoform 5 (UniProt Q6QEF8)
inactive: [1] -0.031 | [9] -0.022 | [7] -0.044 | [5] 0.074 | [10] 0.003

CORO2A (UniProt Q92828)
inactive: [6] -0.068 | [9] -0.022 | [2] 0.019 | [3] -0.088 | [4] 0.21 | [10] 0.01

COQ2 (UniProt Q96H96)
inactive: [7] 0.414 | [3] -0.163

CRY2 (UniProt Q49AN0)
inactive: [6] -0.07 | [9] 0.035 | [8] -0.094 | [10] -0.012

COL6A3 (UniProt P12111)
inactive: [7] 0.218 | [3] 0.017

COX14 (UniProt Q96I36)
inactive: [1] -0.077 | [6] 0.051 | [7] -0.06 | [3] 0.138 | [5] 0.072 | [8] -0.007

CPA4 (UniProt Q9UI42)
inactive: [9] -0.117 | [10] 0.615

CSNK1G2 (UniProt P78368)
inactive: [1] -0.309 | [9] 0.087 | [7] 0.047 | [5] 0.086 | [8] 0.017 | [10] -0.026

CRMP1 isoform 2 (UniProt Q14194)
inactive: [6] 0.038 | [9] -0.224 | [3] 0.124 | [10] 0.181

CRISP3 isoform 3 (UniProt P54108)
inactive: [6] 0.336

CRYAB (UniProt P02511)
inactive: [1] -0.305 | [9] -0.031 | [7] -0.31 | [5] 0.136

CRTC3 (UniProt Q6UUV7)
inactive: [6] -0.035 | [2] 0.048 | [7] -0.104 | [4] 0.042 | [10] 0

COX17 (UniProt Q14061)
inactive: [1] -0.14 | [9] -0.052 | [2] 0.41 | [7] -0.158 | [3] 0.019 | [4] -0.196 | [5] -0.014 | [10] 0.086

CPN1 (UniProt P15169)
inactive: [6] -0.215 | [2] 0.042 | [3] -0.037 | [4] 0.019 | [10] -0.083

CROCCP2 (UniProt Q86T23)
inactive: [6] 0.043 | [2] 0.091 | [3] 0.43 | [4] 0.009

COL2A1 (UniProt P02458)
inactive: [9] 0.185 | [10] -0.183

CS (UniProt F8VU34)
inactive: [6] -0.137

COMMD3-BMI1 (UniProt R4GMX3)
inactive: [9] 0.055 | [7] -0.003 | [10] -0.071

CPNE5 (UniProt Q9HCH3)
inactive: [3] -0.209 | [10] -0.225

COMMD6 isoform 2 (UniProt Q7Z4G1)
inactive: [7] -0.077 | [3] 0.13

COQ4 (UniProt Q9Y3A0)
inactive: [2] -0.28 | [4] 0.283

CRCP (UniProt O75575)
inactive: [1] -0.018 | [6] -0.024 | [7] -0.115 | [5] 0.008 | [8] 0.009 | [10] -0.075

COP1 (UniProt Q8NHY2)
inactive: [9] -0.059 | [2] -0.119 | [4] 0.08

COL25A1 (UniProt Q9BXS0)
inactive: [6] 0.062 | [7] -0.279 | [3] -0.068

Reference: the supplement of paper PMC10849652
